Measured values published in US6875761B2 (Eisai Co., Ltd., priority 1997, dated 2005).
Structures can show the parent of a compound that is named as a salt. At least one structure is not confirmed: it was looked up by name or label, or the drawing left a doubt.

Biological target: α1 adrenalin receptor
Assay: Binding test on [3H] prazosin, cerebral cortex receptor fraction
Parameters: species or system SD rats
Settings: rat cerebral cortex receptor fraction, about 0.2 nM [3H] prazosin, room temperature 60 min; read-out: α 1

In the case of `CCN1CCN(c2nc(/C=C/c3ccc(N4CCOCC4)nc3)cc3ccccc23)CC1` [Example 200, 3-[(E)-2-[2-(4-Morpholinyl)Pyridin-5-Yl]Ethenyl]-1-(4-Ethylpiperazin-1-Yl)Isoquinoline Hydrochloride], the Ki is reported as 755 nM.
